Data as given in PubChem BioAssay AID1347426 (Functional Genomics Laboratory (NCATS/FGL), 2020).
Screen size: about 31,000 sequences; about 1,400 (4.5%) were called active.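 The calls were made as follows: active = median seed-adjusted z-score above 1 or below -1; inactive = the rest.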 Some of the results follow.

Test: Novel Modifiers of Survival Motor Neuron (SMN) Protein: Gene Identification via Genome-wide siRNA Screen
Details: HEK293T SMN2-luciferase reporter, siRNA knockdown, 72 h; actives lie on both sides
Source text: Spinal muscular atrophy (SMA) is the most common neuromuscular autosomal recessive disorder and one of the leading genetic causes of infant death. SMA results from mutations inducing loss of function or deletion in the survival of motor neuron-1 gene (SMN1), leading to deficiency of the survival motor neuron (SMN) protein. Although a second nearly identical gene, SMN2, is retained in humans, its expression primarily produces an aberrantly spliced isoform that is largely unstable and quickly degraded. We performed a genome-wide RNAi screen using a cell-based reporter assay to identify genes and pathways that modulate SMN protein stability. The screen identified over 200 genes that led to the greatest increase or decrease in luciferase expression.
Using HEK293T cells stably expressing a luciferase reporter that combines the promoter and splicing based cassettes in tandem with the major portion of the native SMN2 cDNA with luciferase, we performed a genome-wide RNAi screen to identify modulators of SMN protein levels. Luciferase is expressed when full-length SMN protein is generated with luminescence signal proportional to SMN protein levels. Our luciferase-based reporter assay was used to screen Ambion Silencer Select Human Druggable Genome siRNA library (10418 genes, 3 unique siRNAs per gene) using lipid-based reverse transfection.
Briefly, 1 pmol of each siRNA was spotted to a well of a 384-well plate (Corning, Corning, NY) and 20 microL of serum-free DMEM containing […] of Lipofectamine RNAiMax (Life Technologies, Carlsbad, CA) was then added to each well. Transfected cells were maintained at 37 degrees C in 5% CO2 for 72 hours, 20 microL of ONE-Glo Reagent (Promega) was added to wells for luciferase quantification. Raw luminescence reads were normalized to Ambion(R) Silencer(R) Negative Control #2 siRNA, then log10 transformed. A robust statistical measure of median absolute deviation (MAD) to standardize siRNA activities from each screen. Common Seed Analysis was used to help prioritize clean hits as opposed to those appearing to arise from seed based off-target effects. Candidate modulators were defined as the genes having a MAD score greater than 1.0 or less than -1.0.

Sequence	median seed-adjusted z-score
CAUCUUUCUUGAUCAACAUTT against CALR	inactive: -0.795
GAAUGACCAGAAUCUAGAATT against ALG9	inactive: -0.267
GCUGUGAUGUAGAAUCAAATT against SHBG	inactive: 0.587
GCACAGUUCUCAGCAUUCATT against PAPPA2	inactive: -0.173
UCUCCAAACCUGCUGCUAATT against MYL6B	inactive: 0.11
GAGUGUAUAUGGUAGGGAATT against ATP6AP2	inactive: -0.705
GUGAGGAUCUUAAAGACCATT against LIMA1	inactive: -0.359
GCAUCGGCAUCUUCACGCUTT against FZD5	inactive: -0.129
GCUUCUAUCAUGAUUGGAATT against OLA1	inactive: -0.408
CGGUGACUCUUUAUGCACATT against PMPCB	inactive: 0.507
CCACCAUACGAUACAGAGATT against NTN4	inactive: 0.462
GGAUAAGUCAAUACAAUUUTT against HS3ST5	inactive: -0.725
GAUCCGUGGUUGCACCUAUTT against DPP10	inactive: -0.0478
GGCAAGAAGUUCGAAGUGATT against NTN1	inactive: -0.0419
GGGCAUUUCUGGGACAGGUTT against MPG	inactive: -0.0888
GGGUCUGCAAGGAUAUGAATT against ACY1	inactive: -0.153
GCAGCACAAUGAGAGGCUATT against ACTN1	inactive: 0
GGCUAAUCGUGAACCGGAATT against DOCK8	inactive: 0.243
GGCGCAGAAUGAAUUCCAATT against TCEB3	inactive: 0.232
GGCACUCCAUGCUCACUGUTT against AGPAT1	active: -1.38
GUAGCUCGGCAAUUAAUAATT against TXNDC4	inactive: 0.351
CCCUUCCUCUAUUCGAACATT against POLDIP3	inactive: 0.108

Sequence	median seed-adjusted z-score
GGGAUUCUCUCUCUAAGUATT against HOXD4	inactive: 0.566
GAAGCUCCCGAUUGCAAUATT against SIRT4	inactive: 0.623
UCCCAAACCUUCACCAUCATT against THAP8	inactive: -0.872
CCUUUAUCAGAUGAAUAAATT against RBM11	inactive: -0.0341
AUAUUUCCCAUGAUACUUUTT against BXDC1	inactive: 0.173
GUACAAUACAAACACUUAATT against ORC4L	inactive: -0.286
CGCCCACGCAGAACAUGAATT against SS18L1	inactive: -0.174
AGAUUUCCCUGGGAUCUAUTT against COPS8	inactive: 0.148
GAACCGAACUUUACCAUUATT against XRN2	inactive: -0.312
CCCUGUCUGUGAAGCAUGATT against TXNDC2	active: -1.29
GGAUUAUCUAUUCAAGGAATT against RAD18	inactive: 0.562
CGACGAGAAGACCUAUUUATT against CAB39	inactive: -0.144
CCUUUACCAUGCUCAUUUATT against ASS1	inactive: 0.0886
GCAAGUACCUGUAAUUGAATT against KLF3	inactive: 0.628
CCAUGGAGACUUUCUACUATT against TUBB6	inactive: 0.63
GCACAUUAAAGGGCAAGAATT against GALM	inactive: -0.111
GGAAUCAACUAUUUCGAGATT against EZR	inactive: 0.0344
GGACCUCACCUCUACAGCATT against PSMB7	inactive: 0.131
GGACUAAACUACCUCCAAATT against KCNE3	active: -1.33
GCAAGUGUAUGGAUUAUUCTT against LARP6	inactive: 0.0335
GAAGGGAAAUGAGUACCGATT against TRIM68	inactive: -0.628
GAUCAGCACUCGAAGGUCATT against HNF4A	inactive: -0.0274

Sequence	median seed-adjusted z-score
CACUAUAAAUGAUAUGACUTT against FOXQ1	inactive: 0.369
CAUUAGCCCAGGUAUCUAUTT against CREB1	inactive: 0.391
CAUUUCCAUUGGUUAUUUATT against AK1	inactive: -0.0471
GAGGAACAGGAAUAACAUUTT against GCG	active: -1.18
GCUGCAUUGUGGGUGAUGATT against PTGIR	inactive: -0.0806
CCAUGACUGUCAAUCGUCATT against GFM1	inactive: -0.0641
GAAAGAUGGUUACCGAAUATT against RYK	inactive: -0.446
GCCUAACCCGGAGAACUUUTT against CYP1B1	inactive: -0.261
GUUCCUUAUUGUUAAGGUATT against PCDHB10	inactive: -0.09
GGUGAAUACUUCCGGUACATT against SULT2B1	inactive: 0
AGGUGGAAGAUCUUAAAAATT against USF1	inactive: 0.16
CGUGGGAUGGGAUGAAAGATT against NDUFB11	inactive: 0.014
CUACUGGUGUAUUACAUGATT against XK	inactive: 0.403
GCUAGUAUCUCUUAUCUCATT against SLC18A2	inactive: 0.777
CAAAGGACCUUGUCUGGUUTT against SPDYA	inactive: 0.351
GCAUCGACUAUGAUGAGUUTT against TNNC1	inactive: 0.442
GCAUCUACAAGGUUGUGAATT against UHRF1	inactive: 0.231
CGGCUCCUCUUACAACUAUTT against KCTD5	inactive: -0.748
CCAUCACGGUCUCAGCUCATT against CPNE1	inactive: -0.0206
GAUUGAAGAGGGCAGUAAATT against SHROOM2	inactive: 0.11
GGUUAGAGACUUGACAAUATT against DARS	inactive: 0
CAGUGGAUCAAAUAACGCATT against ADAMTS20	active: 1.44

Some of the entries above in another layout.

| Sequence | median seed-adjusted z-score |
| --- | --- |
| CAUCUUUCUUGAUCAACAUTT against CALR | inactive: -0.795 |
| GAGUGUAUAUGGUAGGGAATT against ATP6AP2 | inactive: -0.705 |
| GAACCGAACUUUACCAUUATT against XRN2 | inactive: -0.312 |
| CGACGAGAAGACCUAUUUATT against CAB39 | inactive: -0.144 |
| GGACCUCACCUCUACAGCATT against PSMB7 | inactive: 0.131 |
| GCUAGUAUCUCUUAUCUCATT against SLC18A2 | inactive: 0.777 |

The list goes on.

Sequence	median seed-adjusted z-score
GACCGGCUAUUCGAAAUUATT against TNFRSF21	inactive: 0.225
GACCAUGAAUUUCAUUGUATT against MYLK3	inactive: 0.316
GGACCGAAAUUCCUUCGAATT against FAT1	inactive: -0.00397
CAGUUUCAAUUAAAUCGAUTT against HELZ	inactive: 0.0778
CCCUUGAAGGCAAAGAUCATT against OPRK1	active: -1.08
CCAAAGCCCUGUCUAUCUATT against ZNF547	inactive: 0.099
CGUACAUCCAGUGACCCUATT against MTMR4	inactive: -0.735
GGCAAUACCUGUCUGGACATT against SIRPB2	inactive: 0
GCAAGGCGGUGUUUAUGGATT against DLX1	inactive: 0.0356
GCGUGAACACUUCAUGUCATT against PDSS2	inactive: 0.111
GUGUGGAACUUGGACAAAATT against NETO1	inactive: 0.0504
GGAUGUUCGUCAUAUUGAATT against IRAK3	inactive: 0.155
GAAUGACCAGAGACAUCUATT against INSR	inactive: 0.172
CCUUUAGACAGAUUAGACATT against ZNF642	inactive: 0.169
GCAACAAGAGAGUACAAGATT against TNPO1	inactive: 0.688
GCACAAACCUCACAAGUCATT against ZNF554	inactive: 0.0311
CCACAAUUAGAGAUCUUUATT against THUMPD2	inactive: -0.129
CUCUGCCUCUCUACCCUUATT against F2RL1	inactive: 0.138
GGCUAGCCCUAGUAUGGAATT against CCAR1	active: -1.18
GAAUUACUGCAACGAAAUATT against PDCD6IP	inactive: 0
GCUGGAAGCUGUGAAGUCATT against NR1I3	inactive: 0.000933
GAAUUACGAGCAGAACAAATT against CHSY1	inactive: 0.247

Sequence	median seed-adjusted z-score
GCAUACCAGUGUUUCCUCATT against CRNN	inactive: -0.0758
GACUUUCACUACAAGCAGATT against DUSP9	inactive: 0.61
GCGUGAAUGAGGUGGAUUATT against ETNK2	inactive: -0.74
CAAAUUGAUAGAUCCCAAATT against HNRPDL	inactive: -0.68
GGAGCAAGCGGGUUGUUAUTT against CAMK2N1	inactive: 0
GGAAGGUUGCUAUAGUGGATT against SSX2IP	inactive: -0.0799
GCGUGAUACUGUACGCAGATT against PROS1	inactive: 0.436
GCUGCUUAAGAGAUACUGATT against PRKCQ	inactive: 0.692
GCAGUUACCCGCAUACCAATT against CALCR	inactive: -0.404
GCAACAUCAUUGUGAUUUUTT against GPR21	inactive: 0.246
CGGUAUCUAUGACACUGCATT against SLC25A5	inactive: -0.0501
GACAUAUGCAAGAACUAUATT against PSAP	inactive: 0.107
GGACAUGAACCUAGAGUAATT against RBM45	inactive: -0.234
CACUACAACUCAUCCAACATT against GCDH	inactive: -0.0391
GAGUUCGUCGAAUCCCAAATT against SETMAR	inactive: 0.191
GCUUCUAACAUCAAGAUGATT against GABRR3	inactive: 0.368
GGAGCAUAAAGUAGACCGATT against ABCA10	inactive: -0.104
AGCUACAAUUUGAAAGAGATT against RNF144A	inactive: -0.185
GUAGAGUGCUUCAACAAGATT against ECH1	inactive: 0.0348
UCUUCGUGGUCACCAGUAATT against FUT2	inactive: -0.878

Pulled one by one from the list above (two):
Sequence	median seed-adjusted z-score
GGAAGGUUGCUAUAGUGGATT against SSX2IP	inactive: -0.0799
GACUUUCACUACAAGCAGATT against DUSP9	inactive: 0.61
